Data as given in PubChem BioAssay AID1259308 (NCATS, 2017).

Purpose: 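Genes whose loss raises luciferase production in HEK293 cells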 (primary screen)
System: human HEK293 embryonic kidney cells stably expressing firefly luciferase (HEK-CMV-Luc2-Hygro)
Reagent: single siRNA against human genes, 0.8 pmol siRNA per well
Duration: 72 h
Read-out: 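Reporter luminescence and viable-cell signal on separate replicate plates, given as percent of non-targeting control and median/MAD z-scores, plus per-cell luciferase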
Direction: total luciferase, z-score and total luciferase, % of control: higher = more reporter protein produced; luciferase per cell, z-score: higher = more reporter output per viable cell; viable cells, % of control: higher = more viable cells
Hit rule: 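Active when the median/MAD z-score for overall luciferase is greater than 3; a gene was taken forward for validation with new siRNAs if at least two of its three siRNAs passed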
Calls: active = raised luciferase; inactive = no rise
The deposit covers about 59,000 reagents; below is a random part of them. Of all reagents, about 1,510 (2.6%) got an active call. 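Calls use total luciferase alone and ignore viability, so some active siRNAs may act by altering cell number.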 Entries without a mark were called inactive. Reagents against one gene are numbered here.

gene | siRNA no. | total luciferase, z-score | total luciferase, % of control | luciferase per cell, z-score | viable cells, % of control
ZKSCAN8 | 1 | 3.82 (active) | 158 | 2.83 | 83.7
ZKSCAN8 | 2 | -0.151 | 78.9 | -0.318 | 95.8
ZKSCAN8 | 3 | -0.242 | 77.1 | -0.329 | 93.9
RND2 | 1 | -0.471 | 72.5 | -0.993 | 105
RND2 | 2 | 1.26 | 107 | 0.919 | 93.9
RND2 | 3 | 1.21 | 106 | 1.55 | 78.6
CCT2 | 1 | 3.31 (active) | 148 | 2.79 | 79.1
CCT2 | 2 | 4 (active) | 161 | 2.86 | 85
CCT2 | 3 | 3.26 (active) | 147 | 2.21 | 91.6
ZFC3H1 | 1 | 0.767 | 97.1 | 0.499 | 95.2
ZFC3H1 | 2 | 0.906 | 99.9 | 1.16 | 82.2
ZFC3H1 | 3 | -0.481 | 72.3 | -0.00632 | 80.9
CD34 | 1 | 0.127 | 84.4 | -0.0228 | 94.9
CD34 | 2 | -0.000858 | 81.9 | -0.776 | 112
CD34 | 3 | -0.348 | 75 | 0.151 | 80.5
ACTR3B | 1 | -2.22 | 37.7 | -2.03 | 72
ACTR3B | 2 | 1 | 102 | 0.37 | 103
ACTR3B | 3 | 0.121 | 84.3 | -0.285 | 102
RITA1 | 1 | -0.824 | 65.5 | -0.268 | 78.5
RITA1 | 2 | -0.637 | 69.2 | -0.145 | 80.4
RITA1 | 3 | 0.174 | 85.4 | -0.156 | 99.4
SEMA4A | 1 | 2.29 | 127 | 1.74 | 90.1
SEMA4A | 2 | -1.32 | 55.7 | -1.22 | 85.9
SEMA4A | 3 | 2.04 | 122 | 2.91 | 63.5
GSTP1 | 1 | 1.85 | 119 | 2.39 | 70.6
GSTP1 | 2 | -0.295 | 76 | -0.746 | 103
GSTP1 | 3 | 0.0854 | 83.6 | -0.196 | 98.3
QRFP | 1 | -1.17 | 58.6 | -0.669 | 78.1
QRFP | 2 | -0.33 | 75.3 | 0.00357 | 84.1
QRFP | 3 | 0.187 | 85.6 | 0.496 | 83.9
DCLK3 | 1 | 1.99 | 122 | 3.51 | 53.8
DCLK3 | 2 | 0.837 | 98.5 | 0.813 | 88.9
DCLK3 | 3 | -0.65 | 69 | 0.0555 | 75.9
TOR1AIP2 | 1 | 2.34 | 128 | 2.58 | 72.7
TOR1AIP2 | 2 | 1.61 | 114 | 1.8 | 79.2
TOR1AIP2 | 3 | -0.686 | 68.2 | -0.27 | 81.9
TOR1AIP2 | 4 | 0.624 | 94.3 | 0.486 | 92.7
TOR1AIP2 | 5 | 1.26 | 107 | 1.47 | 81.2
TOR1AIP2 | 6 | -0.407 | 73.8 | -0.55 | 95.3
ZNF470 | 1 | -0.726 | 67.5 | 0.817 | 60.8
ZNF470 | 2 | 0.0828 | 83.5 | 1.61 | 61
ZNF470 | 3 | -0.318 | 75.6 | -0.436 | 94.7
LCA5L | 1 | -1.29 | 56.2 | -1.16 | 85.2
LCA5L | 2 | 1.01 | 102 | 0.746 | 93.7
LCA5L | 3 | 0.518 | 92.2 | -0.163 | 108
ESRP2 | 1 | -0.0535 | 80.8 | -0.912 | 115
ESRP2 | 2 | 1.45 | 111 | 0.981 | 95.5
ESRP2 | 3 | -0.165 | 78.6 | -0.478 | 99.6
PIR | 1 | 0.132 | 84.5 | -0.492 | 107
PIR | 2 | 2.04 | 122 | 1.95 | 82
PIR | 3 | 0.103 | 83.9 | -0.464 | 106
C2orf42 | 1 | 0.0897 | 83.7 | -0.169 | 97.8
C2orf42 | 2 | -1.27 | 56.7 | -1.38 | 91.1
C2orf42 | 3 | -0.0362 | 81.2 | 0.00533 | 90.6
RPS4XP16 | 1 | 0.0522 | 82.9 | 0.366 | 84.2
RPS4XP16 | 2 | 1.18 | 105 | 1.33 | 83.1
RPS4XP16 | 3 | -1.09 | 60.2 | 1.24 | 48.5
TNFRSF10B | 1 | 1.07 | 103 | 0.743 | 94.8
TNFRSF10B | 2 | 0.74 | 96.6 | 0.248 | 101
TNFRSF10B | 3 | 1.23 | 106 | 0.0174 | 118
NXNL2 | 1 | 0.0825 | 83.5 | 0.268 | 87
NXNL2 | 2 | -1.47 | 52.7 | -1.2 | 80.9
NXNL2 | 3 | -1.15 | 59 | 0.426 | 58.9
RPS10 | 1 | -2.38 | 34.5 | -1.37 | 55.3
RPS10 | 2 | -1.97 | 42.7 | -0.63 | 56.3
RPS10 | 3 | -2.7 | 28.3 | -2.79 | 65.9
ZNF813 | 1 | 0.396 | 89.8 | 0.231 | 94.4
ZNF813 | 2 | 1.3 | 108 | 0.998 | 92.6
ZNF813 | 3 | 0.169 | 85.2 | 0.21 | 90.1
BORCS8 | 1 | 0.128 | 84.4 | 0.183 | 89.9
BORCS8 | 2 | -0.449 | 73 | -0.259 | 87.3
BORCS8 | 3 | 0.252 | 86.9 | 0.359 | 88.3
CPA6 | 1 | 0.0448 | 82.8 | 0.503 | 81
CPA6 | 2 | -0.202 | 77.9 | -0.918 | 111
CPA6 | 3 | 2.72 | 136 | 2.05 | 88.6
